In article PMC9729029:
Results are given in words; binding and its absence hold for the method and conditions named. Binding seen in cells or lysates may run through a third protein. Some binding calls cover weakened binding; strength is not graded here. One block for each molecule: values may come before it.

By UniProt entry, the sequences of proteins in these tests, tags left out.
UniProt Q9EPK5: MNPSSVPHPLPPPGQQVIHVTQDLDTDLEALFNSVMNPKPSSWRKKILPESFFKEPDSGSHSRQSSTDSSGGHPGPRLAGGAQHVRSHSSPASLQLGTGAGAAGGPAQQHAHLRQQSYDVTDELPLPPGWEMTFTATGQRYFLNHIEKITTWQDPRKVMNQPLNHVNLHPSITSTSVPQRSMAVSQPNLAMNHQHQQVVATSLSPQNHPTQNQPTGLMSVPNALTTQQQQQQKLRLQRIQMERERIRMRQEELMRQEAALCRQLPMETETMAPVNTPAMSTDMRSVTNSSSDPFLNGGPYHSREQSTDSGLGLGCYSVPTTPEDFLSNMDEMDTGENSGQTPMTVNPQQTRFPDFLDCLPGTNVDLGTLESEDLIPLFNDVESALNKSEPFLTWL

Key:
[1] = molecular target: T1, Never-in-mitosis A-related kinase 8 (NEK8) (UniProt Q91ZR4); experiment: co-IP; lysate (RIPA buffer) of 3T3-L1 cells transfected with the NEK8 overexpression plasmid; 1 ug antibody against NEK8 or TAZ in 200 uL lysate, 4°C, 2 h; agarose A/G; rabbit IgG as negative control; western blot
T1 sequence: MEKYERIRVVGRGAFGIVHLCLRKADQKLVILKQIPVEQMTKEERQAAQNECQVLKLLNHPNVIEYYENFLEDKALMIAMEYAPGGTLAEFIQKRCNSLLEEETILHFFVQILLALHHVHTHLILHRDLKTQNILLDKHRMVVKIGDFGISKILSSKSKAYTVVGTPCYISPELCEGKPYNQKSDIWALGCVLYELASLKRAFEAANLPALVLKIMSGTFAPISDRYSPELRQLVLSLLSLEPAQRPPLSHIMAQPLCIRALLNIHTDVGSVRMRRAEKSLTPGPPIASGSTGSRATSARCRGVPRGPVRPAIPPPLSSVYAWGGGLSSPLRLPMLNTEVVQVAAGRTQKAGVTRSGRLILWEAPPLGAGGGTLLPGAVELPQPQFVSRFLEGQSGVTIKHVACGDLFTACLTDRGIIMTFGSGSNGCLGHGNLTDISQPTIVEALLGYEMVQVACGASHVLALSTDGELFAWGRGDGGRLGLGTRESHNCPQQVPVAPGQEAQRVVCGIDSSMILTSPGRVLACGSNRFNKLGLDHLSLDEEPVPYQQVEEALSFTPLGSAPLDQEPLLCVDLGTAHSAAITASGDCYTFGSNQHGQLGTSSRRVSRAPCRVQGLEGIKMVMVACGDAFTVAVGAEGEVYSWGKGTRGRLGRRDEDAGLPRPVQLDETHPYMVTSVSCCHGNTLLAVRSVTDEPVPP

[2] = molecular target: TAZ (Tafazzin, an oncogenic transcriptional regulator; also called WWTR1) (mouse (endogenous in 3T3-L1)) (UniProt Q9EPK5); experiment: as above

- binding [1]: binds
Molecule: TAZ (Tafazzin, an oncogenic transcriptional regulator; also called WWTR1) (from UniProt Q9EPK5 1-395)

- binding [2]: binds
B1: Never-in-mitosis A-related kinase 8 (NEK8) (enzyme, UniProt Q91ZR4 1-698)
chain: T1 sequence
